PubChem BioAssay AID686938 – Drosophila RNAi Screening Center – 2013
Test: 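Knock-downs reducing store-operated calcium influx in Drosophila cells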 (primary screen). Cell system: Drosophila S2R+ cells. Knock-down reagent: long dsRNA against Drosophila genes, about 0.25 µg dsRNA per well, roughly 10,000 cells. Duration: 5 days of knock-down before the calcium assay. Challenge: thapsigargin (SERCA pump blocker) to empty calcium stores; entry signal taken 4 min after adding it. Measured: 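Duplicate raw fluo-4 intensities per well from a plate reader, at rest and four minutes after thapsigargin emptied calcium stores; entry-to-rest ratio filled for only some wells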. Direction: calcium entry signal: higher = stronger calcium signal after store depletion; resting calcium signal: higher = higher resting calcium signal. Active means: 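Hit if the duplicate-averaged plate z-score for entry over resting signal is under −3; wells with weak total dye signal (Fmax z < −2) or more than 5 off-targets removed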. Meaning of the calls: active = strongly reduced calcium entry; inactive = no strong reduction.
The deposit covers about 23,000 reagents; this is a random part of those with a known target gene and a result. Of all reagents, 75 (0.33%) got an active call. 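Raw plate signals without normalisation; calls rest on plate z-scores that were not deposited; ratio present for only 364 wells.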 Reagents against one gene are numbered here. The record does not give: the dose of the treatment.

After knock-down of cato, the screen gave calcium entry signal, replicate 1 (fluorescence units) = 4.28e7; calcium entry signal, replicate 2 (fluorescence units) = 4.36e7; resting calcium signal, replicate 1 (fluorescence units) = 1.82e7; resting calcium signal, replicate 2 (fluorescence units) = 1.93e7; inactive.
After knock-down of St3 #1, the record shows calcium entry signal, replicate 1 (fluorescence units) = 3.41e7; calcium entry signal, replicate 2 (fluorescence units) = 5.18e7; resting calcium signal, replicate 1 (fluorescence units) = 1.85e7; resting calcium signal, replicate 2 (fluorescence units) = 2.42e7; inactive.
With knock-down of St3 #2 the results were calcium entry signal, replicate 1 (fluorescence units) = 4.09e7; resting calcium signal, replicate 1 (fluorescence units) = 2.18e7; inactive.
Silencing of TotA resulted in: calcium entry signal, replicate 1 (fluorescence units) = 5.35e7; calcium entry signal, replicate 2 (fluorescence units) = 3.46e7; resting calcium signal, replicate 1 (fluorescence units) = 2.33e7; resting calcium signal, replicate 2 (fluorescence units) = 1.67e7; inactive.
Against CG4461, the entry reads calcium entry signal, replicate 1 (fluorescence units) = 2.26e7; calcium entry signal, replicate 2 (fluorescence units) = 2.96e7; resting calcium signal, replicate 1 (fluorescence units) = 1.27e7; resting calcium signal, replicate 2 (fluorescence units) = 1.29e7; inactive.
After knock-down of CG1909, the record shows calcium entry signal, replicate 1 (fluorescence units) = 5.23e7; calcium entry signal, replicate 2 (fluorescence units) = 4.99e7; resting calcium signal, replicate 1 (fluorescence units) = 2.30e7; resting calcium signal, replicate 2 (fluorescence units) = 2.28e7; inactive.
CG15522 gave calcium entry signal, replicate 1 (fluorescence units) = 3.65e7; calcium entry signal, replicate 2 (fluorescence units) = 5.52e7; resting calcium signal, replicate 1 (fluorescence units) = 1.83e7; resting calcium signal, replicate 2 (fluorescence units) = 2.20e7; inactive.
Knock-down of CG31661 came out at: calcium entry signal, replicate 1 (fluorescence units) = 4.08e7; calcium entry signal, replicate 2 (fluorescence units) = 3.39e7; resting calcium signal, replicate 1 (fluorescence units) = 1.87e7; resting calcium signal, replicate 2 (fluorescence units) = 1.54e7; inactive.
After knock-down of nub #1, the record shows calcium entry signal, replicate 1 (fluorescence units) = 3.06e7; calcium entry signal, replicate 2 (fluorescence units) = 3.01e7; resting calcium signal, replicate 1 (fluorescence units) = 1.55e7; resting calcium signal, replicate 2 (fluorescence units) = 1.24e7; inactive.
After knock-down of nub #2 the results were calcium entry signal, replicate 1 (fluorescence units) = 4.51e7; calcium entry signal, replicate 2 (fluorescence units) = 3.38e7; resting calcium signal, replicate 1 (fluorescence units) = 2.02e7; resting calcium signal, replicate 2 (fluorescence units) = 1.51e7; inactive.
nub #3 showed calcium entry signal, replicate 1 (fluorescence units) = 5.38e7; calcium entry signal, replicate 2 (fluorescence units) = 3.30e7; resting calcium signal, replicate 1 (fluorescence units) = 2.25e7; resting calcium signal, replicate 2 (fluorescence units) = 1.54e7; inactive.
After knock-down of nub #4, the screen gave calcium entry signal, replicate 1 (fluorescence units) = 4.72e7; calcium entry signal, replicate 2 (fluorescence units) = 3.27e7; resting calcium signal, replicate 1 (fluorescence units) = 2.07e7; resting calcium signal, replicate 2 (fluorescence units) = 1.62e7; inactive.
Against nub #5, the entry reads calcium entry signal, replicate 1 (fluorescence units) = 6.59e7; calcium entry signal, replicate 2 (fluorescence units) = 3.32e7; resting calcium signal, replicate 1 (fluorescence units) = 3.11e7; resting calcium signal, replicate 2 (fluorescence units) = 1.41e7; inactive.

Targets above whose gene name starts with S or s (2):
St3 #1: calcium entry signal, replicate 1 (fluorescence units) = 3.41e7; calcium entry signal, replicate 2 (fluorescence units) = 5.18e7; resting calcium signal, replicate 1 (fluorescence units) = 1.85e7; resting calcium signal, replicate 2 (fluorescence units) = 2.42e7; activity call = inactive
St3 #2: calcium entry signal, replicate 1 (fluorescence units) = 4.09e7; resting calcium signal, replicate 1 (fluorescence units) = 2.18e7; activity call = inactive

Continued:
Against AP-1-2beta, the values are calcium entry signal, replicate 1 (fluorescence units) = 4.26e7; calcium entry signal, replicate 2 (fluorescence units) = 3.86e7; resting calcium signal, replicate 1 (fluorescence units) = 1.97e7; resting calcium signal, replicate 2 (fluorescence units) = 1.60e7; inactive.
With knock-down of CG32547 #1, the record shows calcium entry signal, replicate 1 (fluorescence units) = 3.17e7; calcium entry signal, replicate 2 (fluorescence units) = 3.13e7; resting calcium signal, replicate 1 (fluorescence units) = 1.73e7; resting calcium signal, replicate 2 (fluorescence units) = 1.53e7; inactive.
With knock-down of CG32547 #2, the screen gave calcium entry signal, replicate 1 (fluorescence units) = 3.58e7; calcium entry signal, replicate 2 (fluorescence units) = 3.36e7; resting calcium signal, replicate 1 (fluorescence units) = 1.75e7; resting calcium signal, replicate 2 (fluorescence units) = 1.54e7; inactive.
Silencing of CG32547 #3 resulted in: calcium entry signal, replicate 1 (fluorescence units) = 4.04e7; calcium entry signal, replicate 2 (fluorescence units) = 3.48e7; resting calcium signal, replicate 1 (fluorescence units) = 2.03e7; resting calcium signal, replicate 2 (fluorescence units) = 1.56e7; inactive.
Depletion of CG32547 #4 gave: calcium entry signal, replicate 1 (fluorescence units) = 5.49e7; calcium entry signal, replicate 2 (fluorescence units) = 3.81e7; resting calcium signal, replicate 1 (fluorescence units) = 2.96e7; resting calcium signal, replicate 2 (fluorescence units) = 2.04e7; inactive.
With knock-down of NimC2, the screen gave calcium entry signal, replicate 1 (fluorescence units) = 5.22e7; calcium entry signal, replicate 2 (fluorescence units) = 3.38e7; resting calcium signal, replicate 1 (fluorescence units) = 2.22e7; resting calcium signal, replicate 2 (fluorescence units) = 1.58e7; inactive.
After knock-down of hrm the results were calcium entry signal, replicate 1 (fluorescence units) = 4.49e7; calcium entry signal, replicate 2 (fluorescence units) = 5.18e7; resting calcium signal, replicate 1 (fluorescence units) = 2.22e7; resting calcium signal, replicate 2 (fluorescence units) = 2.20e7; inactive.
Against scaf6 #1, the entry reads calcium entry signal, replicate 1 (fluorescence units) = 3.24e7; calcium entry signal, replicate 2 (fluorescence units) = 4.38e7; resting calcium signal, replicate 1 (fluorescence units) = 1.47e7; resting calcium signal, replicate 2 (fluorescence units) = 2.77e7; inactive.
scaf6 #2 gave calcium entry signal, replicate 1 (fluorescence units) = 3.17e7; calcium entry signal, replicate 2 (fluorescence units) = 5.43e7; resting calcium signal, replicate 1 (fluorescence units) = 1.68e7; resting calcium signal, replicate 2 (fluorescence units) = 2.19e7; inactive.
Depletion of scaf6 #3 gave: calcium entry signal, replicate 1 (fluorescence units) = 4.42e7; calcium entry signal, replicate 2 (fluorescence units) = 6.45e7; resting calcium signal, replicate 1 (fluorescence units) = 2.09e7; resting calcium signal, replicate 2 (fluorescence units) = 2.62e7; inactive.
